Results from the supplement of paper PMC12819154, “High-throughput peptide-centric local stability assay extends protein–ligand identification to membrane proteins, tissues and bacteria” (Nature Structural & Molecular Biology, 2025).
The other results are listed elsewhere or left out. Most values lie at the level of the controls, where differences are scatter.

Sequences of proteins named here, by UniProt entry; tags and fusion partners are left off. A change or cut given only in a name is not applied to a line headed by its entry.
UniProt Q6DID3: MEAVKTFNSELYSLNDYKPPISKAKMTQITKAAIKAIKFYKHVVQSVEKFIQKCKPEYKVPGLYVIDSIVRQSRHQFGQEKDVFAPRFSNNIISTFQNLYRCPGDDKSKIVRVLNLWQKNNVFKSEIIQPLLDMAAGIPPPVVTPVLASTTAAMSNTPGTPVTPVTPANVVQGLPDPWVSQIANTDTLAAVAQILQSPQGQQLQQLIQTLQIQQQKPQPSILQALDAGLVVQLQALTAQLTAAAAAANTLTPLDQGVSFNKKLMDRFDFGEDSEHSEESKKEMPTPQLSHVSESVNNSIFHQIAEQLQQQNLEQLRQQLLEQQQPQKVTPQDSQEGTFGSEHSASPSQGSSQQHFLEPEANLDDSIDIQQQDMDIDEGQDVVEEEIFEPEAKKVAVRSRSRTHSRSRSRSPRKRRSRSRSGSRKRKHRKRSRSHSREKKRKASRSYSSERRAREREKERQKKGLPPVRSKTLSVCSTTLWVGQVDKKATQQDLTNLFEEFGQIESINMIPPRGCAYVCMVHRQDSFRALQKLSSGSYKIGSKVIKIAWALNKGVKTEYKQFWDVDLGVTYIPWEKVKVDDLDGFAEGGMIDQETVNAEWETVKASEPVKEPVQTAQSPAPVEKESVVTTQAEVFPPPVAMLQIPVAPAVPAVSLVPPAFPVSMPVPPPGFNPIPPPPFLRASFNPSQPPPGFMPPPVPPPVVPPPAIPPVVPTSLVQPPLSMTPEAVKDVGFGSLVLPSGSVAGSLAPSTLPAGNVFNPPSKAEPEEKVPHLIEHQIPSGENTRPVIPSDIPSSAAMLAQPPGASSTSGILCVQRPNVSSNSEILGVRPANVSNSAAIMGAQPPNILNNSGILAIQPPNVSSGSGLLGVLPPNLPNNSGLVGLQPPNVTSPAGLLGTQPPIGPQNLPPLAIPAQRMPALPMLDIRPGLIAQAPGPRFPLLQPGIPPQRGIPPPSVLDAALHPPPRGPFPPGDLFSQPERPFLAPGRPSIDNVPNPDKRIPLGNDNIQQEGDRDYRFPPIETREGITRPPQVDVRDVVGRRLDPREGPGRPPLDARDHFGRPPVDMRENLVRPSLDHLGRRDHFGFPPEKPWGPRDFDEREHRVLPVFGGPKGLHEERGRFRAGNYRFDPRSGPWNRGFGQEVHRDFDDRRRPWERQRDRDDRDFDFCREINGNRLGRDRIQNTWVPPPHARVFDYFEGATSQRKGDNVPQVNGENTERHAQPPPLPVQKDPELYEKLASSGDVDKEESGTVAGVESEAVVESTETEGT
UniProt Q6PAV2: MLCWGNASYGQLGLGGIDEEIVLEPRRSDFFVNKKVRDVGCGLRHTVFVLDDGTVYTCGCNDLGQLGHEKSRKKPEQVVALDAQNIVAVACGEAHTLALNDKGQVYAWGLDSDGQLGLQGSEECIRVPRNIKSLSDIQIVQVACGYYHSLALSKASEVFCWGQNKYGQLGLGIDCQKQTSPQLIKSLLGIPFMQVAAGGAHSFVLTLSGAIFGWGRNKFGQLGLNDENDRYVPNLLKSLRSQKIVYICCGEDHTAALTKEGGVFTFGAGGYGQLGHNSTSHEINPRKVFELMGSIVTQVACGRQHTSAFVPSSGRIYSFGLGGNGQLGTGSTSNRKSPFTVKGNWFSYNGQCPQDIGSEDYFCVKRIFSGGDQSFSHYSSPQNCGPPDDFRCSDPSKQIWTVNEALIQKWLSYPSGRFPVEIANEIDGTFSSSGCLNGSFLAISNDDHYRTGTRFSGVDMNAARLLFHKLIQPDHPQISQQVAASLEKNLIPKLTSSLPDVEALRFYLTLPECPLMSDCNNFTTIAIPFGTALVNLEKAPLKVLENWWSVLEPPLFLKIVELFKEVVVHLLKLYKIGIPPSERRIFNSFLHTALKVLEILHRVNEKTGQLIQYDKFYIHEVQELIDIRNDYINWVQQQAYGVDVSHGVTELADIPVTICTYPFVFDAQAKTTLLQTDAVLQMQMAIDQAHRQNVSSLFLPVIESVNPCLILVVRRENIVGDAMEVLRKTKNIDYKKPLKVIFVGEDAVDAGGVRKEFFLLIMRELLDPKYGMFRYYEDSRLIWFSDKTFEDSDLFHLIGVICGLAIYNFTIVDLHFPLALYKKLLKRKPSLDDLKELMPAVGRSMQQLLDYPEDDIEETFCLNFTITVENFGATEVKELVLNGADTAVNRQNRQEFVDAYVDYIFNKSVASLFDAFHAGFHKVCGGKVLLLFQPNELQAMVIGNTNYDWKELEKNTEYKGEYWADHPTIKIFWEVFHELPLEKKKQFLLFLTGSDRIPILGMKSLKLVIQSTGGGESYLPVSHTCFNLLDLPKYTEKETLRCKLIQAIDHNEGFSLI
UniProt Q6PB66, whole entry: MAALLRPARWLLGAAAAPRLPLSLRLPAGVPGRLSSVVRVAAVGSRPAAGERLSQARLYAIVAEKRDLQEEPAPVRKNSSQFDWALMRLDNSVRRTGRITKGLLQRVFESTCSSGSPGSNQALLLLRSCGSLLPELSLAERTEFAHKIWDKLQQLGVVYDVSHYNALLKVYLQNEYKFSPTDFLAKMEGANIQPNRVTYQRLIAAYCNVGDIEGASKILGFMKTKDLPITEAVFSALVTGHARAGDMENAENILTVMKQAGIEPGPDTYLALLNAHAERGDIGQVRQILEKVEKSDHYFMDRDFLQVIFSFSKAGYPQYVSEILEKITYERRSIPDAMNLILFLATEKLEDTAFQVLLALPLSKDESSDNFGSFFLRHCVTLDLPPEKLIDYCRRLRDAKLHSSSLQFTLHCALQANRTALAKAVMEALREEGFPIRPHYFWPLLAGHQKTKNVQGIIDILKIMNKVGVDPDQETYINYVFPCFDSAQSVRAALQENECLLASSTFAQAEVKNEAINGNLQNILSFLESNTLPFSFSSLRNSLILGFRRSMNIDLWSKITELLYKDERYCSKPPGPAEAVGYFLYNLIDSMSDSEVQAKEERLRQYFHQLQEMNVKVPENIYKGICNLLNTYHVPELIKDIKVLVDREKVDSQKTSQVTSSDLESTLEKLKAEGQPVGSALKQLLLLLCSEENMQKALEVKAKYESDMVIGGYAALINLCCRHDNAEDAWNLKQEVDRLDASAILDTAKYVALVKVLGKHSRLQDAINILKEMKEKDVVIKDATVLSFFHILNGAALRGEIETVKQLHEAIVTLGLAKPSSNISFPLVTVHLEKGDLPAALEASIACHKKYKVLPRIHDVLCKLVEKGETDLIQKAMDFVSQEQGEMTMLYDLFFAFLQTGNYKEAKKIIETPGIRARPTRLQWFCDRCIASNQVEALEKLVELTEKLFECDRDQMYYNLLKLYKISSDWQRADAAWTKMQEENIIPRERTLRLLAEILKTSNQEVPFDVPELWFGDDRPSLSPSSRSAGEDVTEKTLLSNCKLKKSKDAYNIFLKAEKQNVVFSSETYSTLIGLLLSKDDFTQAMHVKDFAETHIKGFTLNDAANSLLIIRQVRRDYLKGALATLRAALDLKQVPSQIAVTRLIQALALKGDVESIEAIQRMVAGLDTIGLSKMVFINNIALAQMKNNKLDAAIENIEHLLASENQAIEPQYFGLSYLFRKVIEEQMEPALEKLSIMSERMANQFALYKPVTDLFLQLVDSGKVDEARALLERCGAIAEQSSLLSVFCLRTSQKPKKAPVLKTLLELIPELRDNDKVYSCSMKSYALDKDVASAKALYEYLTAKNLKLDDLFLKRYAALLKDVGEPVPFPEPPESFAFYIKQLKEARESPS
UniProt Q6P8X1: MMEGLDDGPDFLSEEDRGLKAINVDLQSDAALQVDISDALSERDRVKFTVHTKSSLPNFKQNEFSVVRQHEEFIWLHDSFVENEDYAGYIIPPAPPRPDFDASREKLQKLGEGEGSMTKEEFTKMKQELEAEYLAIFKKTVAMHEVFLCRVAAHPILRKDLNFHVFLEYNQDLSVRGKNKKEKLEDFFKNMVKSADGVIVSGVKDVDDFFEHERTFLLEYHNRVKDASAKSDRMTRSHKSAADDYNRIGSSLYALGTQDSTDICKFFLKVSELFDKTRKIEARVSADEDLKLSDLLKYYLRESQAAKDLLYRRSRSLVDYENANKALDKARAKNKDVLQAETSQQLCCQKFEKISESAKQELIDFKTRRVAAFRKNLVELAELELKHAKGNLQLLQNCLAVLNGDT
UniProt Q6P5F7: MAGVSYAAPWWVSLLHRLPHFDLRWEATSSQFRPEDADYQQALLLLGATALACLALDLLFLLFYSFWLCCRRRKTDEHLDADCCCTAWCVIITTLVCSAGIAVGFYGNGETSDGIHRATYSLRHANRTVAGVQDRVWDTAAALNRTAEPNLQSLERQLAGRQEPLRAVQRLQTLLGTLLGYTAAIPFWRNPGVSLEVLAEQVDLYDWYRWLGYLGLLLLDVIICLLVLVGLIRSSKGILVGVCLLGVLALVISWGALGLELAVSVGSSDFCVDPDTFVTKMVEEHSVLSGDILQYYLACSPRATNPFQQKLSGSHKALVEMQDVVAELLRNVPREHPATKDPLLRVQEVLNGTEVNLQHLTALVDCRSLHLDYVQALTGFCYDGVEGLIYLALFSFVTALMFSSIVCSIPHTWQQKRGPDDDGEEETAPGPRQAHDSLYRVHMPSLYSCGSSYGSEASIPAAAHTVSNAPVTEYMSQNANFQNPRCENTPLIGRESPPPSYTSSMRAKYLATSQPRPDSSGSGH
UniProt Q6DG52: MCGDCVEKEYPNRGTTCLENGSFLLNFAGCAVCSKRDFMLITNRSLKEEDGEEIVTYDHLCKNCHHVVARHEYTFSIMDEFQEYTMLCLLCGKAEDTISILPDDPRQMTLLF
UniProt Q6PD10: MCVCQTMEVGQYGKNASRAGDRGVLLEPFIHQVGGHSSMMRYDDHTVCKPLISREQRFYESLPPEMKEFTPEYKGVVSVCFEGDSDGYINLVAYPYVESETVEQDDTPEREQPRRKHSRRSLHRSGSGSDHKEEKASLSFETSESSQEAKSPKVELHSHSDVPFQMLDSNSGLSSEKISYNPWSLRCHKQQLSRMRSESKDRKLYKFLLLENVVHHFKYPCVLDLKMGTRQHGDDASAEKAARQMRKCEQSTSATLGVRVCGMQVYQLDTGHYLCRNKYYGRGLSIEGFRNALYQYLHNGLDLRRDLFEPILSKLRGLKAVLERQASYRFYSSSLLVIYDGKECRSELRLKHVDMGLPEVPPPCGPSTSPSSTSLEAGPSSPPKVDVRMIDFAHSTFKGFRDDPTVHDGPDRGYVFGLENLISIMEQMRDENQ
UniProt Q6PDI6: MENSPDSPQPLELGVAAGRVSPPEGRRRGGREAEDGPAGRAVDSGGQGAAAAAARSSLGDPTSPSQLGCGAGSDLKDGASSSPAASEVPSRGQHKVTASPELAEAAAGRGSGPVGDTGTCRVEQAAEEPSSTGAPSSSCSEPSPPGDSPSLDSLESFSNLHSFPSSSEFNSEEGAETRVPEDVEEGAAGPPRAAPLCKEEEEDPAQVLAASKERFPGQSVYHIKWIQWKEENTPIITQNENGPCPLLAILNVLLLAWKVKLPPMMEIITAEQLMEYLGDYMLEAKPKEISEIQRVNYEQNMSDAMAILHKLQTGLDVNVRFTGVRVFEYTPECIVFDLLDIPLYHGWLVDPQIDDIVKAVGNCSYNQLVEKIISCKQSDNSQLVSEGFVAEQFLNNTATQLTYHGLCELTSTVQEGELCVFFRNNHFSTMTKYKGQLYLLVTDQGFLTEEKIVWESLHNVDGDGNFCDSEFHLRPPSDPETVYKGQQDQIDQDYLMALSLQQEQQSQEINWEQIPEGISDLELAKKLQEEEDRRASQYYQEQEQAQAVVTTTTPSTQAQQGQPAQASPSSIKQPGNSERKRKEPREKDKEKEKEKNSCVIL
UniProt Q6PCP5: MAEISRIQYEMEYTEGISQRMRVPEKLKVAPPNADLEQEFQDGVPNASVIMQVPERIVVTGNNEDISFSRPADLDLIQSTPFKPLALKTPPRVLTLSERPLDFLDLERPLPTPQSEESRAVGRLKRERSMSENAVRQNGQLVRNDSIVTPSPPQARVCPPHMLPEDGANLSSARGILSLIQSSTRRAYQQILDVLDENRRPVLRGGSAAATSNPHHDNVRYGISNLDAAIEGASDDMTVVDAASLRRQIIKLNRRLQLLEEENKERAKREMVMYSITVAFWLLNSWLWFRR
UniProt Q6DVA0: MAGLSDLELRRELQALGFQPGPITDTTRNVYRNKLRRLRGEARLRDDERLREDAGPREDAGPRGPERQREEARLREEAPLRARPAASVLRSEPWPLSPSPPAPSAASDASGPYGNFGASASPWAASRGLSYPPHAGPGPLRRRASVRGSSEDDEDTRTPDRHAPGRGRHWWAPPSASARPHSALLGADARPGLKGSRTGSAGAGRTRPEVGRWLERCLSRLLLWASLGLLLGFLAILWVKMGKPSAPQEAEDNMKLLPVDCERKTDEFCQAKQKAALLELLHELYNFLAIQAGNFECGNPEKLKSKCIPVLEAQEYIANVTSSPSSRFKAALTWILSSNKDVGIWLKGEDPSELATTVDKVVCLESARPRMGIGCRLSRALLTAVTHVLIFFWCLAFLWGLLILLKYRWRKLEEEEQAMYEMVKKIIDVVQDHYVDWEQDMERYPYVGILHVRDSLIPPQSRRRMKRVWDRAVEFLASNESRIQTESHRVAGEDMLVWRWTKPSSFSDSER

Compound: CN[C@@H]1C[C@H]2O[C@@](C)([C@@H]1OC)n1c3ccccc3c3c4c(c5c6ccccc6n2c5c31)C(=O)NC4 [staurosporine]
Experiment: log2 fold change of tryptic peptide abundance, ligand vs vehicle (limited proteolysis) (log2 ratio); higher = more trypsin-susceptible (destabilized)
Settings: ligand concentration: 20 uM; sample: mouse liver crude lysate; replicate design: treated separately

**Q.** With “UniProt Q6P2L7 (peptide sequence: EGLGKRCEDDK, peptide start residue: 99)” as the target, how does the log2 fold change read?
**A.** Its log2 fold change is 0.0592.

**Q.** “UniProt Q6A4J8 (peptide sequence: HTGYVGLK, peptide start residue: 211)” was tested. Which log2 fold change did it give?
**A.** The log2 fold change was -0.503.

**Q.** For “UniProt Q6PAL0 (peptide sequence: ANSSSGPSPLR, peptide start residue: 157)”, which log2 fold change is on record?
**A.** The log2 fold change was -0.0539.

**Q.** “UniProt Q6GQS1 (peptide sequence: QLVAGAVAGAVSR, peptide start residue: 187)” was tested. Which log2 fold change did it give?
**A.** The log2 fold change was -0.484.

**Q.** How did the log2 fold change turn out when “UniProt Q6DID3 (peptide sequence: EGITRPPQVDVR, peptide start residue: 1023)” was run?
**A.** Its log2 fold change is -0.285.

**Q.** How did the log2 fold change turn out when “UniProt Q6PR54 (peptide sequence: SEEALIGR, peptide start residue: 2003)” was run?
**A.** The log2 fold change was 0.48.

**Q.** With “UniProt Q6PHZ5 (peptide sequence: SLSPVAAPPLREPR, peptide start residue: 261)” as the target, how does the log2 fold change read?
**A.** Its log2 fold change is -0.414.

**Q.** How did the log2 fold change turn out when “UniProt Q6P5G6 (peptide sequence: AAHGGSAASSALK, peptide start residue: 2)” was run?
**A.** Its log2 fold change is 0.405.

**Q.** For “UniProt Q6PAV2 (peptide sequence: FSGVDMNAAR, peptide start residue: 455)”, which log2 fold change is on record?
**A.** Its log2 fold change is -0.192.

**Q.** “UniProt Q6PB66 (peptide sequence: ITELLYK, peptide start residue: 559)” was tested. Which log2 fold change did it give?
**A.** Its log2 fold change is 0.795.

**Q.** For “UniProt Q6PDM1 (peptide sequence: KLAPEFSK, peptide start residue: 348)”, which log2 fold change is on record?
**A.** Its log2 fold change is 0.448.

**Q.** How did the log2 fold change turn out when “UniProt Q6PCM1 (peptide sequence: ALYDVGDIVHSVR, peptide start residue: 730)” was run?
**A.** Its log2 fold change is 0.569.

**Q.** Which log2 fold change does the source give for “UniProt Q6NZF1 (peptide sequence: KLSVGGDSDPPLKR, peptide start residue: 287)” here?
**A.** The log2 fold change was 0.128.

**Q.** Which log2 fold change does the source give for “UniProt Q6AW69 (peptide sequence: DLQDQLSEMHDELDSTKR, peptide start residue: 698)” here?
**A.** The log2 fold change was 0.685.

**Q.** For “UniProt Q6P8X1 (peptide sequence: MKQELEAEYLAIFKK, peptide start residue: 125)”, which log2 fold change is on record?
**A.** The log2 fold change was -0.508.

**Q.** How did the log2 fold change turn out when “UniProt Q6P5F7 (peptide sequence: YLATSQPRPDSSGSGH, peptide start residue: 509)” was run?
**A.** The log2 fold change was -0.25.

**Q.** Which log2 fold change does the source give for “UniProt Q6GYP7 (peptide sequence: DQPGQAPMR, peptide start residue: 722)” here?
**A.** Its log2 fold change is -0.187.

**Q.** Which log2 fold change does the source give for “UniProt Q6DID5 (peptide sequence: LDGGQNPPTR, peptide start residue: 298)” here?
**A.** The log2 fold change was 0.237.

**Q.** Which log2 fold change does the source give for “UniProt Q6NS52 (peptide sequence: CVARAPPSCIK, peptide start residue: 285)” here?
**A.** Its log2 fold change is -0.127.

**Q.** For “UniProt Q6DG52 (peptide sequence: CGDCVEKEYPNR, peptide start residue: 2)”, which log2 fold change is on record?
**A.** The log2 fold change was 0.146.

**Q.** Which log2 fold change does the source give for “UniProt Q6BCL1 (peptide sequence: KPPKPEFGELSK, peptide start residue: 139)” here?
**A.** The log2 fold change was -0.447.

**Q.** Which log2 fold change does the source give for “UniProt Q6PD10 (peptide sequence: GFRDDPTVHDGPDR, peptide start residue: 399)” here?
**A.** Its log2 fold change is -0.158.

**Q.** “UniProt Q6NZJ6 (peptide sequence: TLAFEELR, peptide start residue: 1437)” was tested. Which log2 fold change did it give?
**A.** Its log2 fold change is -0.538.

**Q.** “UniProt Q6NV83 (peptide sequence: MIEFVVR, peptide start residue: 434)” was tested. Which log2 fold change did it give?
**A.** The log2 fold change was 0.16.

**Q.** For “UniProt Q6P5G3 (peptide sequence: NNGQVYTYPDGK, peptide start residue: 37)”, which log2 fold change is on record?
**A.** The log2 fold change was -0.383.

**Q.** For “UniProt Q6PB70 (peptide sequence: DQGPDGDRDTETGSGDAAGR, peptide start residue: 684)”, which log2 fold change is on record?
**A.** The log2 fold change was 0.0871.

**Q.** Which log2 fold change does the source give for “UniProt Q6PDI6 (peptide sequence: GSGPVGDTGTCR, peptide start residue: 110)” here?
**A.** Its log2 fold change is 0.317.

**Q.** For “UniProt Q6PCP5 (peptide sequence: RERSMSENAVR, peptide start residue: 126)”, which log2 fold change is on record?
**A.** The log2 fold change was -0.579.

**Q.** “UniProt Q6NZB0 (peptide sequence: RQREEEIEAQEK, peptide start residue: 190)” was tested. Which log2 fold change did it give?
**A.** Its log2 fold change is 0.573.

**Q.** Which log2 fold change does the source give for “UniProt Q6NVG5 (peptide sequence: ILYNLIVIR, peptide start residue: 69)” here?
**A.** Its log2 fold change is 0.361.

**Q.** With “UniProt Q6DVA0 (peptide sequence: RELQALGFQPGPITDTTR, peptide start residue: 11)” as the target, how does the log2 fold change read?
**A.** The log2 fold change was -0.278.
